Reference: article doi:10.1101/2024.09.13.612941
Construct, isoform or probe ends are uncertain for at least one entry. At least one verdict was read from the data and is not stated in words by the source. Tags and fusion partners may be left off the protein sequences shown.

System: T1, SMARCAD1 V974A (human)
T1 sequence (looked up): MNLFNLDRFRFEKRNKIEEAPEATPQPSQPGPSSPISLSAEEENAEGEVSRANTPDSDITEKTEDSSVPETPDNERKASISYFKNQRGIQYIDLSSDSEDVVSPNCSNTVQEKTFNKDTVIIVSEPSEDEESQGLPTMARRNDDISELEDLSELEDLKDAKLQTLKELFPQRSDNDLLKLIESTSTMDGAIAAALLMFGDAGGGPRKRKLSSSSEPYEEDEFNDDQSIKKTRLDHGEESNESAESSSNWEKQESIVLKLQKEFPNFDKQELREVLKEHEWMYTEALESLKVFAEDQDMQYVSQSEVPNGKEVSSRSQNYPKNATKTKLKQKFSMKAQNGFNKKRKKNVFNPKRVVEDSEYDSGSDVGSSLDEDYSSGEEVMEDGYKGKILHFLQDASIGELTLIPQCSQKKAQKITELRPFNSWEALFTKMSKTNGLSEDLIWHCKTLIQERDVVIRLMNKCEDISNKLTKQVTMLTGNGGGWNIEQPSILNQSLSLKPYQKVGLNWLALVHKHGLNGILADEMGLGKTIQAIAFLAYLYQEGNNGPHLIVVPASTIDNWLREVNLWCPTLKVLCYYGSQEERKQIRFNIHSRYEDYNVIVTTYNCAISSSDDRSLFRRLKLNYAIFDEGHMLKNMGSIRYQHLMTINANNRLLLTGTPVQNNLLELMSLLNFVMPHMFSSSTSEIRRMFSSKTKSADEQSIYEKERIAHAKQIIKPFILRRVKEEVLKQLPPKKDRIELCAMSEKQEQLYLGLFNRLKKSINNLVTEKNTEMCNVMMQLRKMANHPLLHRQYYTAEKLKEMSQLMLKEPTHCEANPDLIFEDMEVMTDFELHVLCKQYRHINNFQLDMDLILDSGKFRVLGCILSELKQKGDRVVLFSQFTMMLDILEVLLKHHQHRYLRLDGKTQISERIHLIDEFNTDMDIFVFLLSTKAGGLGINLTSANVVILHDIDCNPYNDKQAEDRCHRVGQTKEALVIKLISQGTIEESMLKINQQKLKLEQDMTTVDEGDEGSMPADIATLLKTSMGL
Test: EMSA
Conditions: 1 uM protein, 50 nM substrate; residues 1-1028

GCAGCTGGCACGACAGGTATGAATC (double strand) [dsDNAshort]
binding result: binds
